These are yes or no findings as the source states them, for the method shown. Some binding calls cover weakened binding; strength is not graded here.

Amino acid sequences for entries named in this document (tags omitted). A change or cut given only in a name is not applied to a line headed by its entry.
UniProt P01019: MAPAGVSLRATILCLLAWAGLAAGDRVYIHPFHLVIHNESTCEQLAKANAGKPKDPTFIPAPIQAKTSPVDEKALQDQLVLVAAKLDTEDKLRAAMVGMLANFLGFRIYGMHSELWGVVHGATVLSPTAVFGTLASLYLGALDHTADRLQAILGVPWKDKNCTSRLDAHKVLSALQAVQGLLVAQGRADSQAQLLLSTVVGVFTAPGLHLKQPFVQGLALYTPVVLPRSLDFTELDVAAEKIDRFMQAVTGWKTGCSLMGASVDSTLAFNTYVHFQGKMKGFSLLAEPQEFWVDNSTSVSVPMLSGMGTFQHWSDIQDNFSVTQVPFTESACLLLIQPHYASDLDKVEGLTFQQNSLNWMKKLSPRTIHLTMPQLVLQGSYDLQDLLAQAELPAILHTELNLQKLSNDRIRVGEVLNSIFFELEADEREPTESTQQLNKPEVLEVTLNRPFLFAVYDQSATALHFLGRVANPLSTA

The test concerns the target T1, purified recombinant human DPP3 (dipeptidyl peptidase 3) (human) (UniProt Q9NY33).
T1 sequence: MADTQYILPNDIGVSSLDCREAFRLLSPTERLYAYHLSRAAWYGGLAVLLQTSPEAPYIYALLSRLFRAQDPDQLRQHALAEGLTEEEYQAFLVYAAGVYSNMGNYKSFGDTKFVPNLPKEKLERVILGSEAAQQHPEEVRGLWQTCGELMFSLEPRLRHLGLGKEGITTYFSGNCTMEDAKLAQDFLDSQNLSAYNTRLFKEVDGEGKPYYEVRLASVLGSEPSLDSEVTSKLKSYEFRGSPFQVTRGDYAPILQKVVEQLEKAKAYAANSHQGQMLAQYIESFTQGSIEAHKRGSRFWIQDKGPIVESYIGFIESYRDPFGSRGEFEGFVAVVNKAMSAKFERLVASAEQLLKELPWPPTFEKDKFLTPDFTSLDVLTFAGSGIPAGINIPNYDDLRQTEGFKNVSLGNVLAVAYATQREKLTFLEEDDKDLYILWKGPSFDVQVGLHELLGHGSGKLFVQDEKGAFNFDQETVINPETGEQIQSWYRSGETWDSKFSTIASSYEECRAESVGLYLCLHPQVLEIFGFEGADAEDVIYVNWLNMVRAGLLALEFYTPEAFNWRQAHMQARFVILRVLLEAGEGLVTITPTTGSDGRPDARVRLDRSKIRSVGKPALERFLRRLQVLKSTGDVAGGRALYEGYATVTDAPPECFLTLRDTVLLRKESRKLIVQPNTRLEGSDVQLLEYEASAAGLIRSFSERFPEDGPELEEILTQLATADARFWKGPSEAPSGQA
As to the kind of experiment: ITC; single-injection method: 5 µl of 2 mM peptide injected into 200 µl of 20 µM purified hDPP3 in the cell; 50 mM Tris-HCl pH 8.0, 100 mM NaCl; 25 °C; active enzyme, so binding and turnover overlap; both purified. In general terms: In ITC the heat of successive injections is recorded.

On to “angiotensin III, Ang III (2–8) (from UniProt P01019 26-32) (peptide)”, for which the binding result is reported as “binds”. Take “angiotensin IV, Ang IV (3–8) (from UniProt P01019 27-32) (peptide)”: the binding entry is listed as “binds”.

(Values after article PMC7535908, “Dipeptidyl peptidase 3 modulates the renin–angiotensin system in mice” (The Journal of Biological Chemistry, 2020).)
